# In PubChem BioAssay AID504467 (National Center for Advancing Translational Sciences (NCATS), 2011):
# In all, about 330,000 compounds went through this assay and about 7,700 (2.3%) were called active. Inconclusive means that the source gave no clear call. Such entries were picked first, then a sample of the others. The call rests on the fitted dose curve; in most records, active means well fitted inhibition curve with a large enough effect; inconclusive means small, poorly fitted or top-dose-only effect, or effect the other way; inactive means flat fitted curve, though single readings scatter. A potency beside an inconclusive call is a rough fit, not a confirmed value.
# Experiment: qHTS screen for small molecules that inhibit ELG1-dependent DNA repair in human embryonic kidney (HEK293T) cells expressing luciferase-tagged ELG1; further: nearly all actives have a fitted effect of over 55% in size
# Settings: HEK293T ELG1-luciferase reporter, luminescence, 16 h, DNA damage induced by 5-fluorouridine; series mostly up to 46.1 µM
# How it was run: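 Quantitative HTS, concentration-response format. 2,000 cells/well co-treated with 5-fluorouridine and compound, 16 hr in 5% CO2 at 37 °C; ONE-Glo luminescence read after 30 min.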
# Potency means the concentration at half of the fitted maximal effect.
row,SMILES,Potency
1,Cc1ccc(C(=O)/C=C/c2cc(C#N)n(C)c2C)cc1,"inconclusive: 29.1 µM [activator, single point]"
2,Cc1cc(C)c(C#N)c(SCC(=O)Nc2ccccc2C(N)=O)n1,"inconclusive: 2.06 µM [activator, partial curve]"
3,Nc1ncc(-c2ccccc2)c(-c2ccc(O)cc2O)n1,"inconclusive: 11.6 µM [activator, partial curve, poor fit]"
4,O=C1/C(=C/c2ccc(O)c(O)c2)Oc2cc(O)ccc21,"inconclusive: 11.6 µM [activator, partial curve]"
5,Nc1cc([N+](=O)[O-])ccc1Nc1ccccc1,inactive
6,CN(C)C(=O)c1ccc2c(c1)n(C)c(=O)n2C,"inconclusive: 25.9 µM [activator, single point]"
7,Cc1ccc(C)c(C(=O)CCC(=O)O)c1,inactive
8,O=C(Nc1ccncc1)Nc1ccncc1,"inconclusive: 18.3 µM [activator, single point]"
9,COC(=O)CSc1nnc(CNc2ccc(Cl)cc2)n1Cc1ccccc1,"inconclusive: 0.0891 µM [activator, full curve, poor fit]"
10,CCCCSC(=O)Nc1ccccc1,"inconclusive: 23.1 µM [activator, single point]"
11,Cc1cccc(NC(=O)c2ccc(Cl)c(S(=O)(=O)N3CCc4ccccc43)c2)n1,"inconclusive: 11.2 µM [inhibitor, partial curve]"
12,Cc1c(Cc2ccc3c(c2)OCO3)sc(NC(=O)c2ccccc2)c1C(N)=O,"inconclusive: 32.6 µM [activator, partial curve, poor fit]"
13,O=C(O)CSc1nnc(-c2ccncc2)n1-c1ccc(Cl)cc1,inactive
14,Cc1ccc(C(=O)N2C(=O)c3cccc(N)c3C2=O)o1,inactive
15,COC(=O)Cc1c(C)c2ccc(OC(C)C)cc2oc1=O,"inconclusive: 18.3 µM [activator, partial curve]"
16,O=c1c2ccccc2sn1-c1nccs1,inactive
17,Cn1c(=O)n(C)c2cc(/C=N/n3cnnc3)ccc21,"inconclusive: 20.6 µM [activator, single point]"
18,O=C(CN1CCN(C(=O)c2ccc(OCc3cn4ccccc4n3)cc2)CC1)Nc1cccc(F)c1,"inconclusive: 25.9 µM [inhibitor, partial curve]"
19,O=C(/C=C/Nc1cccc(F)c1)c1ccco1,"inconclusive: 4.61 µM [activator, partial curve]"
20,O=C(CNc1ccc(Br)cc1)c1ccc(O)cc1,"inconclusive: 6.51 µM [activator, single point]"
21,CC(C)NC(=O)Nc1cccc2c1O[C@H](CN(C)C(=O)Nc1ccc(C(F)(F)F)cc1)[C@@H](C)CN([C@H](C)CO)C2=O,active: 1.3 µM
22,Cc1nnc(SC(C(=O)Nc2ccc(Cl)c([N+](=O)[O-])c2)c2ccccc2)[nH]c1=O (stereo not drawn),inactive
23,CC(=O)NC1=NN(C(C)=O)C(c2ccccn2)S1 (stereo not drawn),"inconclusive: 32.6 µM [activator, partial curve, poor fit]"

row,SMILES,Potency
1,CC1C(=O)N(Cc2ccccc2F)c2ccccc2N1C(=O)c1c(F)cccc1F (stereo not drawn),"inconclusive: 18.3 µM [inhibitor, single point]"
2,CCOC(=O)C1CCN(C(=O)/C=C/c2ccc3c(c2)OCO3)CC1,"inconclusive: 10.3 µM [activator, partial curve]"
3,CC1(C)CC(=O)N(c2cc(Cl)cc(Cl)c2)C(=O)C1,inactive
4,Cc1nc2nc(-c3ccccc3)[nH]n2c(=O)c1C,"inconclusive: 23.1 µM [activator, single point]"
5,Cn1c(NC(=O)c2cccnc2)nc2ccccc21,"inconclusive: 5.8 µM [activator, full curve]"
6,NS(=O)(=O)c1ccc(CCNC(=O)c2ccc3nc4ccc(Cl)cc4c(=O)n3c2)cc1,"inconclusive: 29.1 µM [inhibitor, single point]"
7,CCOC(=O)c1ccc(NC(=S)NCc2ccccc2)cc1,inactive
8,O=C(c1ccc2c(c1)N(Cc1cccc(Cl)c1)C(=O)c1ccccc1S2(=O)=O)N1CCN(c2ccccn2)CC1,inactive
9,CC(C)N(C(=O)Cn1cc(S(=O)(=O)CC(=O)NCc2ccccc2)c2ccccc21)C(C)C,"inconclusive: 20.6 µM [activator, partial curve, poor fit]"
10,CCN(CCCNC(=O)CCCOc1cc(=O)n(C)c2ccccc12)Cc1ccccc1,"inconclusive: 29.1 µM [activator, single point]"
11,COc1ccc(CCN(C)C(=O)c2cccc(S(=O)(=O)NCc3ccccc3)c2)cc1OC,"inconclusive: 23.1 µM [inhibitor, partial curve]"
12,CCn1nc(C(=O)Nc2cccc(S(=O)(=O)N3CCCC3)c2)c2ccccc2c1=O,"inconclusive: 20.6 µM [inhibitor, partial curve]"
13,COc1cc(CC(=O)NCC(C)(C)N2CCOCC2)cc(OC)c1OC,inactive
14,CCCn1c(=N)n(CC(O)c2ccc(C)cc2)c2ccccc21 (stereo not drawn),inactive
15,Cc1c(C(=O)NCc2cccnc2)sc2nc(-c3ccccc3)cn12,"inconclusive: 5.8 µM [activator, full curve, poor fit]"
16,CC[C@H](C)[C@H](NC(=O)c1ccc(Cl)cc1)C(=O)OCC(=O)c1ccc2c(c1)NC(=O)CO2,"inconclusive: 29.1 µM [inhibitor, single point]"
17,Cc1ccc(CNC(=O)c2cc(S(=O)(=O)N3CCCCC3)ccc2N2CCOCC2)cc1,"inconclusive: 10.3 µM [inhibitor, partial curve, poor fit]"
18,CC(C)(C)c1cn(-c2ccc(Cl)cc2)c(=S)[nH]1,inactive
19,Cc1cc(=O)[nH]c(-n2ncc(C#N)c2N)n1,inactive
20,NC1=NC[C@H](c2ccccc2)N1CCc1cc(C(F)(F)F)cc(C(F)(F)F)c1,inactive
21,CC(C)CNC(=O)C(=O)NCC1OCCCN1S(=O)(=O)c1cccs1 (stereo not drawn),inactive
22,C/C=C\C(=O)Nc1cccc(C2=NOC3(C2)C[C@H](C(N)=O)N(C(=O)[C@H]2CCC(=O)N2)C3)c1 (stereo partly drawn),"inconclusive: 20.6 µM [activator, partial curve, poor fit]"
23,CC1CCN(c2c(NCC3CCC(C(=O)N4CCCC(C)C4)CC3)c(=O)c2=O)CC1 (stereo not drawn),"inconclusive: 14.6 µM [inhibitor, partial curve]"

row,SMILES,Potency
1,COc1ccc(S(=O)(=O)N2CCN(CCOc3ccccc3Cl)CC2)cc1OC,"inconclusive: 18.3 µM [inhibitor, single point]"
2,Fc1ccc(-c2nnc(CSc3nnc(-c4cccs4)o3)o2)cc1,"inconclusive: 20.6 µM [activator, single point]"
3,CC(C)C(NC(=O)c1c(F)cccc1F)C(=O)N1CCN(S(=O)(=O)c2ccc(F)cc2)CC1 (stereo not drawn),inactive
4,CCOC(=O)c1ccc(Nc2nnc(C(C)(C)C)c(=O)[nH]2)cc1,"inconclusive: 20.6 µM [inhibitor, single point]"
5,COc1ccc(/C=C2\CCCC(C(=O)C(F)(F)F)=C2O)cc1,"inconclusive: 20.6 µM [activator, partial curve]"
6,NC1=NC2=C(CCCC2)C2(CCCCC2)S1,inactive
7,Cc1ccc(-c2cnn3c(N4CCOCC4)cc(C)nc23)cc1,"inconclusive: 0.58 µM [activator, full curve]"
8,COc1cccc(CCc2nnc(CCC(=O)N3CCN(Cc4ccccn4)CC3)o2)c1,inactive
9,C/C(=N\NC(=O)c1ccc2c(c1)OCO2)c1cccnc1,"inconclusive: 3.66 µM [activator, single point]"
10,COc1cccc(Nc2ncnc3sc(C)cc23)c1,"inconclusive: 18.3 µM [activator, partial curve]"
11,CN(C)c1ccc(C(C(=O)NCC2CCCO2)N(C(=O)c2snc(C(N)=O)c2N)c2ccccc2)cc1 (stereo not drawn),"inconclusive: 29.1 µM [inhibitor, single point]"
12,CC(C)CCNC(=O)c1ccc2nc[nH]c2c1,"inconclusive: 23.1 µM [activator, single point]"
13,CC(C)c1ccc(NC(=O)COC(=O)/C=C/c2cccc(Br)c2)cc1,"inconclusive: 25.9 µM [activator, single point]"
14,O=C(NCCCO)/C(=C\c1cn(-c2ccccc2)nc1-c1cccnc1)NC(=O)c1ccccc1,"inconclusive: 29.1 µM [inhibitor, single point]"
15,O=S(=O)(Nc1ccc(O)c2ccccc12)c1ccc(Br)cc1,active: 23.1 µM
16,O=C(c1cnn(-c2ccccc2)c1)c1cc(F)ccc1O,"inconclusive: 23.1 µM [activator, single point]"
17,COc1ccc(CCNC(=O)c2ccc3c(c2)NC(=O)C(N2CCOCC2)S3)cc1OC (stereo not drawn),"inconclusive: 23.1 µM [inhibitor, single point]"
18,Cc1cccc(-n2ncc3c(NCCCN4CCCC4=O)ncnc32)c1,"inconclusive: 23.1 µM [activator, partial curve]"
19,O=C(Nc1cnc2ccccn2c1=O)c1ccc(Cl)cc1,"inconclusive: 6.31 µM [activator, partial curve]"
20,O=C(CSc1nnc(NC(=O)c2ccco2)s1)Nc1ccccc1,"inconclusive: 25.9 µM [activator, single point]"
21,CSCCC(NS(=O)(=O)c1ccc(Cl)cc1)C(=O)OCC(=O)c1c(C)[nH]c2ccccc12 (stereo not drawn),"inconclusive: 18.4 µM [inhibitor, single point]"
22,CCC(C)NC(=O)CNC(=S)N(Cc1ccc(F)cc1)C1CCCCC1 (stereo not drawn),"inconclusive: 29.1 µM [inhibitor, single point]"

# Quoted from the listing:
# Under Potency, CC1(C)CC(=O)N(c2cc(Cl)cc(Cl)c2)C(=O)C1 shows inactive
# Under Potency, COc1ccc(CCN(C)C(=O)c2cccc(S(=O)(=O)NCc3ccccc3)c2)cc1OC shows inconclusive: 23.1 µM [inhibitor, partial curve]
# Under Potency, Cc1ccc(C(=O)N2C(=O)c3cccc(N)c3C2=O)o1 shows inactive
# Under Potency, O=C(CN1CCN(C(=O)c2ccc(OCc3cn4ccccc4n3)cc2)CC1)Nc1cccc(F)c1 shows inconclusive: 25.9 µM [inhibitor, partial curve]
# Under Potency, Nc1ncc(-c2ccccc2)c(-c2ccc(O)cc2O)n1 shows inconclusive: 11.6 µM [activator, partial curve, poor fit]
# Under Potency, C/C=C\C(=O)Nc1cccc(C2=NOC3(C2)C[C@H](C(N)=O)N(C(=O)[C@H]2CCC(=O)N2)C3)c1 (stereo partly drawn) shows inconclusive: 20.6 µM [activator, partial curve, poor fit]
